{"source": "patent US20230338564A1", "about": "“NEODEGRADER CONJUGATES” (Orum Therapeutics, Inc., priority 2020, published 2023)", "tested_on": "BT-474 breast cancer cell line", "assay": "In vitro antiproliferation assay, General Procedure 1 (WST-8)", "format": "cell-based", "settings": "BT-474 cells; versus trastuzumab and pertuzumab conjugates of Compound (Ia) and (Ic), drug:antibody ratio 8; FIGS. 1-4", "protocol": "The ability of neoDegrader conjugates to inhibit cell growth was measured using in vitro anti-proliferation assay. […] Conjugates were diluted in complete cell growth medium using 4-fold serial dilutions and 100 µL was added per well. […] Viability of remaining cells was determined by colorimetric WST-8 assay (Dojindo Molecular Technologies, Inc., Rockville, MD, US). WST-8 was added to 10% of the final volume and plates were incubated at 37° C. in a humidified 5% CO2 incubator for 2-4 hours. Plates were analyzed by measuring the absorbance at 450 nm (A450) in a multi-well plate reader. Background A450 absorbance of wells with media and WST-8 only was subtracted from all values. The percent viability was calculated by dividing each treated sample value by the average value of wells with untreated cells. The percent viability value was plotted against the test sample concentration in a semi-log plot for each treatment. IC50 values were calculated automatically.", "note": "Some entries share one result that the patent states for a list of compounds."}
{"smiles": "CNc1ccccc1NC(=O)NCc1ccc2c(c1)CN(C1CCC(=O)NC1=O)C2=O", "note": "(centres unmarked) [Compound P4, 3-[[2-(2,6-dioxopiperidin-3-yl)-1-oxo-3H-isoindol-5-yl]methyl]-1-[2-(methylamino)phenyl]urea]", "values": [{"measurement": "fold less active than the antibody neoDegrader conjugates", "value": "> 1000", "unit": "fold"}]}
{"smiles": "CNCCOCCc1ccc(NC(=O)NCc2ccc3c(c2)CN(C2CCC(=O)NC2=O)C3=O)cc1Cl", "note": "(centres unmarked) [Compound P1, 1-(3-chloro-4-[2-[2-(methylamino)ethoxy]ethyl]phenyl)-3-[[2-(2,6-dioxopiperidin-3-yl)-1-oxo-3H-isoindol-5-yl]methyl]urea]", "values": [{"measurement": "fold less active than the antibody neoDegrader conjugates", "value": "> 1000", "unit": "fold"}]}
